Experimental data as given in the supplement of paper PMC12889115.
The other results are listed elsewhere or left out. Values are raw readings; no control value is given beside them.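 First-pass screen: polymyxin B was added at a level that permeabilizes the Salmonella outer membrane while sparing the inner membrane. DMSO wells, with and without polymyxin B, defined maximum growth. Because plates differed from one another, each plate's data were ranked separately and the compounds with the lowest OD600 were carried forward as hits.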

System: Salmonella enterica serovar Typhimurium SL1344
Test: bacterial growth OD600 after 18 h with compound and polymyxin B; higher = more bacterial growth (less inhibition)
Details: 50 µM, Mueller-Hinton broth

Row | Structure (SMILES) | bacterial growth OD600 (polymyxin B 0.75 µg/mL) | bacterial growth OD600 (polymyxin B 1 µg/mL)
1 | COc1cccc(CC2=NOC(C(=O)NCc3cccc(F)c3F)C2)c1 (configuration not stated) | 0.965 | –
2 | Cc1nc(C)c(C(=O)N2CCc3c(cnc(C)c3CNC(=O)/C=C/c3cccs3)C2)s1 | 0.78 | –
3 | O=C(NCc1ccon1)c1coc(COc2ccccc2)n1 | 0.853 | –
4 | CCCN(CC1CC1)C(=O)c1cn(C2CCCCC2)nn1 | – | 0.898
5 | CCOC(=O)C1CCCN(C(=O)c2cc(Cn3nc(C)cc3C)[nH]n2)C1 (configuration not stated) | – | 1.19
6 | O[C@@H]1CN(Cc2ccccc2OC2CCCC2)CC[C@H]1N1CCN(c2ccccn2)CC1 | 0.771 | –
7 | O=C(CCc1ccco1)N1CCOC(Cc2cccc(C(F)(F)F)c2)C1 (configuration not stated) | 0.822 | –
8 | COc1ccc(CN2CCN(Cc3ccc(C)s3)CC2CCO)cc1C (configuration not stated) | – | 0.9
9 | COCCn1cnc2cc(NC(=O)C3CCCCC3)cc(C(=O)NCC3CCOCC3)c21 | 0.836 | –
10 | COc1ccc(CNC2CCCc3c2cnn3-c2ccccn2)c(F)c1 (configuration not stated) | 0.884 | –
11 | Cc1nc(N2CCCCCCC2)ncc1C(C)NC(=O)C1=NNC(=O)CC1 (configuration not stated) | 0.94 | –
12 | COCC(=O)Nc1cc(C(=O)NCCC2=CC[C@H]3C[C@@H]2C3(C)C)cc2nc(-c3cccnc3)n(C)c12 | 1.03 | –
13 | Cc1csc(C(C)N(C)C(=O)CC2(c3ccccc3C)CC(=O)N(Cc3cccnc3)C2=O)n1 (configuration not stated) | 0.791 | –
14 | CCc1ocnc1C(=O)NCc1cccnc1N(C)C | – | 0.875
15 | CN(Cc1ccsc1)c1ccc(C(=O)N2CCCN(c3ncccn3)CC2)cn1 | 0.788 | –
16 | CCn1ccnc1CNC(C)c1cnc(N(C)C2CCCCC2)nc1C (configuration not stated) | 0.614 | –

Another view of three compounds above:
Row	Structure (SMILES)	bacterial growth OD600 (polymyxin B 0.75 µg/mL)	bacterial growth OD600 (polymyxin B 1 µg/mL)
8	COc1ccc(CN2CCN(Cc3ccc(C)s3)CC2CCO)cc1C (configuration not stated)	–	0.9
9	COCCn1cnc2cc(NC(=O)C3CCCCC3)cc(C(=O)NCC3CCOCC3)c21	0.836	–
10	COc1ccc(CNC2CCCc3c2cnn3-c2ccccn2)c(F)c1 (configuration not stated)	0.884	–

Further records:

Row | Structure (SMILES) | bacterial growth OD600 (polymyxin B 0.75 µg/mL) | bacterial growth OD600 (polymyxin B 1 µg/mL)
17 | CCOC(=O)C1(CCc2ccccc2)CCN(C(=O)c2cnn3cccnc23)CC1 | – | 0.777
18 | COCCN1CCN(C(=O)c2csc3nc(-c4cccc(F)c4)cn23)CC1 | – | 1.21
19 | O=C(CCC1(Cc2cccs2)CCC(=O)N1)NCc1cnn(Cc2ccccc2)c1 (configuration not stated) | 0.841 | –
20 | Cc1ccc2c(c1)CN(CCC(=O)NC1CCN(Cc3ccccc3)CC1)CC(C)O2 (configuration not stated) | 0.842 | –
21 | Cc1ccccc1CCC1CCCN(C(=O)C(C)C)C1 (configuration not stated) | 0.5 | –
22 | O=C(Nc1ccnn1C1CCN(C2CSCCSC2)CC1)C1CCCC1 | 0.879 | –
23 | CCC(=O)C1CCCN(C(=O)CC2(c3ccccc3)CC(=O)N(Cc3ccc4c(c3)OCO4)C2=O)C1 (configuration not stated) | 0.095 | –
24 | CN(Cc1ccc2nccnc2c1)C(=O)CCC1(Cc2ccc(-c3ccccc3)cc2)CCC(=O)N1 (configuration not stated) | 0.743 | –
25 | CC1(C(=O)N2CCCC(N3CCN(c4ccc(F)cc4)CC3)C2)CCCCC1 (configuration not stated) | – | 0.878
26 | CCOC(=O)C1(CCOc2ccccc2)CCN(CC)CC1 | 0.799 | –
27 | COc1cccc(OCc2nc(C(=O)N(C)Cc3cccc(Cl)c3)co2)c1 | – | 0.703
28 | COC(=O)c1cc(CNC(=O)C23CC4CC(CC(C4)C2)C3)cc(NC(=O)Cn2cccn2)c1 | 0.767 | –
29 | Cc1cccc(CN2CCCC3(CCN(C(=O)c4ncoc4C)C3)C2=O)c1 (configuration not stated) | – | 0.924
30 | COc1ccc(OC)c(CN2CCc3c(cnc(C)c3CNC(=O)c3ccccc3SC)C2)c1 | 1.08 | –
31 | Cc1c[nH]c(CNCc2cccnc2Oc2ccccc2)n1 | 0.778 | –
32 | O=C(CCN1Cc2ccccc2OC(c2ccccc2F)C1)N1CCCCC1c1cccnc1 (configuration not stated) | 0 | –
